Results published in patent US7838275B2, “Anti-HIV and anti-tumor peptides and fragments of lysozyme” (priority 2000, dated 2010).
At least one peptide structure holds a part that was inferred or is arguable (an end, a ring closure or a residue). Peptide text beside a SMILES is read from it.

Assays:
Muramidase activity = format: biochemical; conditions: in words
[1] = system: HHV8 infected cells of AIDS patients with Kaposi's sarcoma; conditions: in words

| SMILES | muramidase activity (Muramidase activity) | proliferation of HHV8 infected cells of AIDS patients with Kaposi's sarcoma [1] |
| --- | --- | --- |
| CC(C)[C@H](NC(=O)[C@H](Cc1c[nH]c2ccccc12)NC(=O)[C@H](C)NC(=O)[C@@H](N)CCCNC(=N)N)C(=O)N[C@@H](C)C(=O)N[C@@H](Cc1c[nH]c2ccccc12)C(=O)N[C@@H](CCCNC(=N)N)C(=O)N[C@@H](CC(N)=O)C(=O)N[C@@H](CCCNC(=N)N)C(=O)O [HL9, RAWVAWRNR] (H-RAWVAWRNR-OH) | lack muramidase activity | inhibits the proliferation |
| CC[C@H](C)[C@H](NC(=O)CNC(=O)[C@H](CCC(N)=O)NC(=O)[C@@H]1CCCN1C(=O)[C@H](CC(=O)O)NC(=O)[C@H](CCCNC(=N)N)NC(=O)[C@@H](NC(=O)[C@@H](NC(=O)[C@@H](N)CCCNC(=N)N)C(C)C)C(C)C)C(=O)N[C@@H](CCCNC(=N)N)C(=O)N[C@@H](C)C(=O)N[C@@H](Cc1c[nH]c2ccccc12)C(=O)N[C@H](C(=O)N[C@@H](C)C(=O)N[C@@H](Cc1c[nH]c2ccccc12)C(=O)N[C@@H](CCCNC(=N)N)C(=O)N[C@@H](CC(N)=O)C(=O)N[C@@H](CCCNC(=N)N)C(=O)O)C(C)C [HL18, RVVRDPQGIRAWVAWRNR] (H-RVVRDPQGIRAWVAWRNR-OH; N-terminus and C-terminus assumed) | lack muramidase activity | inhibits the proliferation |
